Test results taken from US20240199755A1, “ANTAGONISTS AND AGONISTS OF THE TRANSFERRIN RECEPTOR-2 FOR USE IN THE TREATMENT OF DISEASES OF THE BONE” (Kymab Limited, priority 2018, published 2024).
No constants are given. Whether binding was seen depends on the method and setting. A result given as binding can be weak or reduced; the word gives no strength. Where a sequence is shown, tags or fusion partners need not be part of it.

Assays:
BMP-2 [1] = assay: SPR steady state analysis, BMP-2 immobilised, Tfr2-ECD as analyte [panel d]
BMP-4 [2] = assay: SPR, BMP-4 immobilised, Tfr2-ECD as analyte
BMP-2 [3] = assay: BMP-2 competitive sandwich ELISA, 1.5 ng/ml BMP-2 with increasing Tfr2-ECD
BMP-2 [4] = assay: SPR, high salt running buffer (500 mM NaCl)
BMP-4 [5] = assay: SPR, high salt running buffer (500 mM NaCl)
BMP-6 [6] = assay: SPR, high salt running buffer (500 mM NaCl)
BMP-6 [7] = assay: SPR at high salt (500 mM NaCl in the running buffer), BMP-6 immobilised and Tfr2-ECD as analyte according to the legend; concentration not printed [panel c]
BMP-2 [8] = assay: SPR, Tfr2-ECD immobilised, BMP as analyte
BMP-4 [9] = assay: SPR, Tfr2-ECD immobilised, BMP as analyte
BMP-6 [10] = assay: SPR, Tfr2-ECD immobilised, BMP as analyte
BMP-7 [11] = assay: SPR, Tfr2-ECD immobilised, BMP as analyte
BMP-4 [12] = assay: SPR steady state analysis, BMP-4 immobilised, Tfr2-ECD as analyte [panel e]
BMP-4 [13] = assay: SPR at high salt (500 mM NaCl in the running buffer), BMP-4 immobilised and Tfr2-ECD as analyte according to the legend; concentration not printed [panel c]
BMP-2 [14] = assay: Competition ELISA (BMP-2 sandwich ELISA), BMP-2 constant at 1,500 pg/ml, blocked: BMP-2 capture and detection antibodies
BMP-2 [15] = assay: SPR, Tfr2-ECD immobilised, BMP ligands 50 nM as analytes (FIG. 15a)
BMP-4 [16] = assay: as above
BMP-6 [17] = assay: as above
BMP-7 [18] = assay: as above
BMP-2 [19] = assay: SPR (Biacore T100), Tfr2-ECD immobilised, BMP 50 nM as analyte, 37 °C
BMP-4 [20] = assay: as above
BMP-6 [21] = assay: as above
BMP-7 [22] = assay: as above
BMP-2 [23] = assay: BMP-2 competitive sandwich ELISA, BMP-2 constant at 1.5 ng/ml, blocked: BMP-2 capture and detection antibodies
BMP-2 [24] = assay: SPR, BMP-2 immobilised, Tfr2-ECD as analyte
BMP-2 [25] = assay: SPR, BMP immobilised, Tfr2-ECD as analyte, 500 mM NaCl (FIG. 23c)
BMP-4 [26] = assay: as above
BMP-6 [27] = assay: as above
BMP-2 [28] = assay: SPR at high salt (500 mM NaCl in the running buffer), BMP-2 immobilised and Tfr2-ECD as analyte according to the legend; concentration not printed [panel c]
BMP-2 [29] = assay: SPR (Biacore T100), Tfr2-ECD immobilised, BMP 50 nM as analyte
BMP-4 [30] = assay: as above
BMP-6 [31] = assay: as above
BMP-7 [32] = assay: as above

Measured: binding

B1: Tfr2 extracellular domain (Tfr2-ECD), murine, aa 103-798, recombinant His-tagged (receptor, not shown: large carriers)
chain: RGSCQACGDSVLVVDEDVNPEDSGRTTLYWSDLQAMFLRFLGEGRMEDTIRLTSLRERVAGSARMATLVQDILDKLSRQKLDHVWTDTHYVGLQFPDPAHANTLHWVDADGSVQEQLPLEDPEVYCPYSATGNATGKLVYAHYGRSEDLQDLKAKGVELAGSLLLVRVGITSFAQKVAVAQDFGAQGVLIYPDPSDFSQDPHKPGLSSHQAVYGHVHLGTGDPYTPGFPSFNQTQFPPVESSGLPSIPAQPISADIADQLLRKLTGPVAPQEWKGHLSGSPYRLGPGPDLRLVVNNHRVSTPISNIFACIEGFAEPDHYVVIGAQRDAWGPGAAKSAVGTAILLELVRTFSSMVSNGFRPRRSLLFISWDGGDFGSVGATEWLEGYLSVLHLKAVVYVSLDNSVLGDGKFHAKTSPLLVSLIENILKQVDSPNHSGQTLYEQVALTHPSWDAEVIQPLPMDSSAYSFTAFAGVPAVEFSFMEDDRVYPFLHTKEDTYENLHKMLRGRLPAVVQAVAQLAGQLLIRLSHDHLLPLDFGRYGDVVLRHIGNLNEFSGDLKERGLTLQWVYSARGDYIRAAEKLRKEIYSSERNDERLMRMYNVRIMRVEFYFLSQYVSPADSPFRHIFLGQGDHTLGALVDHLRMLRADGSGAASSRLTAGLGFQESRFRRQLALLTWTLQGAANALSGDVWNIDNNF
binds: all assays above
